Values of other authors, collected in patent US20180344676A1, “TOPICAL ANALGESIC PAIN RELIEF FORMULATIONS, MANUFACTURE AND METHODS OF USE THEREOF” (priority 2015, published 2018).
At least one structure is not confirmed: it was looked up by name or label, or the drawing left a doubt.

Sequences of proteins named here, by UniProt entry; tags and fusion partners are left off.
UniProt O35433, whole entry: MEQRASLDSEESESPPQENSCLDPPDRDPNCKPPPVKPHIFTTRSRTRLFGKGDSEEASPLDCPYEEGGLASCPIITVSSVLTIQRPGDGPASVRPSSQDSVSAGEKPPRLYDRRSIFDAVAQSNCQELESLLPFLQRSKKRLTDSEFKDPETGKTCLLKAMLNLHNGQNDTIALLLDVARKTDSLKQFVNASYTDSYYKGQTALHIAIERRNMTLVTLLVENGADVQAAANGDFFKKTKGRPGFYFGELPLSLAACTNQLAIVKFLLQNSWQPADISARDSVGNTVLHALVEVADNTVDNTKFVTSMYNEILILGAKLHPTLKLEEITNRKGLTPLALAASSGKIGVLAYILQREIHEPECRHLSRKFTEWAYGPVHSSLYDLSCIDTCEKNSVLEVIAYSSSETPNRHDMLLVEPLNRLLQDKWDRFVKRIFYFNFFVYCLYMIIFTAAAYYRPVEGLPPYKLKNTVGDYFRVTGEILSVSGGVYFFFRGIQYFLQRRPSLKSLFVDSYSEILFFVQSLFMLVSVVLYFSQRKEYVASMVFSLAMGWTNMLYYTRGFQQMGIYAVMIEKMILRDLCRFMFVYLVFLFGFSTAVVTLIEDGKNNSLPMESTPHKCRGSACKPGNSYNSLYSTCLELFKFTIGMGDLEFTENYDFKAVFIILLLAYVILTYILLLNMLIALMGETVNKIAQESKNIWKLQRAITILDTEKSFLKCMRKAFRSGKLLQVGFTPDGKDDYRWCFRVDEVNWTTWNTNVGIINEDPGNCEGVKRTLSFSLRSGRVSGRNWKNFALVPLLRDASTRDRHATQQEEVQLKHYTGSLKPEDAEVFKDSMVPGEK

Key:
[1] = tested on: capsaicin-evoked pain-related behavior; settings: mice
TRPV1 = TRPV1 (Rattus norvegicus, UniProt O35433); settings: compared with docosahexaenoic acid

SMILES | capsaicin-evoked pain-related behavior [1] | TRPV1 inhibition (TRPV1)
CC/C=C\C/C=C\C/C=C\C/C=C\C/C=C\C/C=C\CCC(=O)O [docosahexaenoic acid] | not | –
CC/C=C\C/C=C\C/C=C\C/C=C\C/C=C\CCCC(=O)O [eicosapentaenoic acid] | profoundly reduced | markedly more effective inhibitors
